Molecules are shown by their SMILES. Where a name gives a salt, the structure may show the parent alone.

Sequences of proteins named here, by UniProt entry; tags and fusion partners are left off. Residues count along the entry.
UniProt P02768, 25-609: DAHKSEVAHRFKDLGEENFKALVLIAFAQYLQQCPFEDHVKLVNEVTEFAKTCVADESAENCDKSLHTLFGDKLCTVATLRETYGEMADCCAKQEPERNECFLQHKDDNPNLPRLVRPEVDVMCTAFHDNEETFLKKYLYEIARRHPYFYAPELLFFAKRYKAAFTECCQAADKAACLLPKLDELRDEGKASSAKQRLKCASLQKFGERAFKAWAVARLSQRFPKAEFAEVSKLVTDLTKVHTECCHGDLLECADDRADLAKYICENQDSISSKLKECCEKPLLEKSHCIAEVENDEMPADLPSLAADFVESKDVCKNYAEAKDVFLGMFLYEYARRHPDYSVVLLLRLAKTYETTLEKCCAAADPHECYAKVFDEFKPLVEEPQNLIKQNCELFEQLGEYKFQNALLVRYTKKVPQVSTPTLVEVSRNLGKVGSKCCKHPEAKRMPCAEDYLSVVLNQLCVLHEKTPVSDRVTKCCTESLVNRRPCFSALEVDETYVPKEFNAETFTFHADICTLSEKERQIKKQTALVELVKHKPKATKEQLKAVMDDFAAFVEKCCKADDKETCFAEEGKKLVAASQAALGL

For the data set, the target named is immobilized human serum albumin (HSA) (Homo sapiens, UniProt P02768). Description: Drug-protein binding screening by HPLC on immobilized HSA column (HSA-HPLC). As to conditions: reference compounds; Chiral-HSA 50 × 3 mm column, mobile phase 0.9% NaCl (pH 7.0), 0.5 mL/min, 100 µg/mL, 10 µL injected.

Molecule `CN(C)CCOC(c1ccccc1)c1ccccc1` [Diphenhydramine hydrochloride] gave a Retention time of 6.23 min.
As to `Cc1cc(NS(=O)(=O)c2ccc(N)cc2)no1` [Sulfamethoxazole], the Retention time is listed as 3.68 min.

Values taken from PMC3625562, “Rapid Screening of Drug-Protein Binding Using High-Performance Affinity Chromatography with Columns Containing Immobilized Human Serum Albumin” (Journal of Analytical Methods in Chemistry, 2013).
